The target of this assay is recombinant human Syk (GST-hSyk fusion protein) (Homo sapiens, UniProt P43405). Briefly: Homogeneous Time-Resolved Fluorescence (HTRF) assay for the recombinant human Syk enzyme. To be noted: read-out: rhSYK IC50; 10-dose titration, 25 μM ATP. As to the method: Syk inhibition may be determined using the following assay protocol:
Homogeneous Time-Resolved Fluorescence (HTRF) Assay for the Recombinant Human Syk Enzyme:
A recombinant GST-hSyk fusion protein was used to measure potency of compounds to inhibit human Syk activity. The recombinant human GST-Syk (Carna Biosciences #08-176) (5 pM final concentration) was incubated with various concentrations of the inhibitor diluted in DMSO (0.1% final concentration) for 10 minutes at room temperature in 15 mM Tris-HCl (pH 7.5), 0.01% tween 20, 2 mM DTT in 384 well plate format. To initiate the reaction the biotinylated substrate peptide (250 nM final concentration) that contains the phosphorylation site for Syk was added with magnesium (5 mM final concentration) and ATP (25 μM final concentration). Final volume of the reaction was 10 μL. Phosphorylation of the peptide was allowed to proceed for 45 minutes at room temperature. To quench the reaction and detect the phosphorylated product, 2 nM of a Europium-anti-phosphotyrosine antibody (Perkin Elmer #AD0161) and 70 nM SA-APC (Perkin-Elmer #CR130-100) were added together in 15 mM Tris pH 7.5, 40 mM EDTA, 0.01% tween 20. Final volume of the quenching solution was 10 μL. The resulting HTRF signal was measured after 30 minutes on an EnVision (Perkin-Elmer) reader using a time-resolved fluorescence protocol. […]

Structures were worked out from names or drawings and are uncertain.

For orientation: IC50 means the concentration that gives 50% inhibition.

With `O=C(O)CCc1cnn(-c2cccc(Nc3cc(C(F)(F)F)ccn3)n2)c1` [Example 18.1, 3-(1-(6-((4-(trifluoromethyl)pyridin-2-yl)amino)pyridin-2-yl)-1H-pyrazol-4-yl)propanoic acid], the IC50 worked out at 56 nM.

Source of the values: US9242984B2, “Pyrazolyl derivatives as Syk inhibitors” (Merck Sharp & Dohme Corp., priority 2012, dated 2016).
